Laboratory results reported in patent US20120053196A1, “Combination Treatment of Breast Cancer” (priority 2009, published 2012).
At least one structure is not confirmed: it was looked up by name or label, or the drawing left a doubt.

Tested on: HMGCR mRNA
Experiment: qRT-PCR of HMGCR mRNA levels in MCF7 cells after Simvastatin/Tamoxifen treatment
Type: cell-based
Details: five days, 10 μM Simvastatin or 100 nM Tamoxifen, FIG. 15

CCC(C)(C)C(=O)O[C@H]1C[C@@H](C)C=C2C=C[C@H](C)[C@H](CC[C@@H]3C[C@@H](O)CC(=O)O3)[C@H]21 [Simvastatin, simvastatin]
HMGCR levels of mRNA after treatment: slight increase
